# Measured values taken from the supplement of paper PMC11732987, “Enantioselective OTUD7B fragment discovery through chemoproteomics screening and high-throughput optimisation” (Communications Chemistry, 2025).
# The chains behind the UniProt entries cited, without tags or fusion partners. Where a name states a change or a piece, a line headed by the entry shows the natural chain unless it says otherwise. Residues count along the entry.
# UniProt Q9UPY3: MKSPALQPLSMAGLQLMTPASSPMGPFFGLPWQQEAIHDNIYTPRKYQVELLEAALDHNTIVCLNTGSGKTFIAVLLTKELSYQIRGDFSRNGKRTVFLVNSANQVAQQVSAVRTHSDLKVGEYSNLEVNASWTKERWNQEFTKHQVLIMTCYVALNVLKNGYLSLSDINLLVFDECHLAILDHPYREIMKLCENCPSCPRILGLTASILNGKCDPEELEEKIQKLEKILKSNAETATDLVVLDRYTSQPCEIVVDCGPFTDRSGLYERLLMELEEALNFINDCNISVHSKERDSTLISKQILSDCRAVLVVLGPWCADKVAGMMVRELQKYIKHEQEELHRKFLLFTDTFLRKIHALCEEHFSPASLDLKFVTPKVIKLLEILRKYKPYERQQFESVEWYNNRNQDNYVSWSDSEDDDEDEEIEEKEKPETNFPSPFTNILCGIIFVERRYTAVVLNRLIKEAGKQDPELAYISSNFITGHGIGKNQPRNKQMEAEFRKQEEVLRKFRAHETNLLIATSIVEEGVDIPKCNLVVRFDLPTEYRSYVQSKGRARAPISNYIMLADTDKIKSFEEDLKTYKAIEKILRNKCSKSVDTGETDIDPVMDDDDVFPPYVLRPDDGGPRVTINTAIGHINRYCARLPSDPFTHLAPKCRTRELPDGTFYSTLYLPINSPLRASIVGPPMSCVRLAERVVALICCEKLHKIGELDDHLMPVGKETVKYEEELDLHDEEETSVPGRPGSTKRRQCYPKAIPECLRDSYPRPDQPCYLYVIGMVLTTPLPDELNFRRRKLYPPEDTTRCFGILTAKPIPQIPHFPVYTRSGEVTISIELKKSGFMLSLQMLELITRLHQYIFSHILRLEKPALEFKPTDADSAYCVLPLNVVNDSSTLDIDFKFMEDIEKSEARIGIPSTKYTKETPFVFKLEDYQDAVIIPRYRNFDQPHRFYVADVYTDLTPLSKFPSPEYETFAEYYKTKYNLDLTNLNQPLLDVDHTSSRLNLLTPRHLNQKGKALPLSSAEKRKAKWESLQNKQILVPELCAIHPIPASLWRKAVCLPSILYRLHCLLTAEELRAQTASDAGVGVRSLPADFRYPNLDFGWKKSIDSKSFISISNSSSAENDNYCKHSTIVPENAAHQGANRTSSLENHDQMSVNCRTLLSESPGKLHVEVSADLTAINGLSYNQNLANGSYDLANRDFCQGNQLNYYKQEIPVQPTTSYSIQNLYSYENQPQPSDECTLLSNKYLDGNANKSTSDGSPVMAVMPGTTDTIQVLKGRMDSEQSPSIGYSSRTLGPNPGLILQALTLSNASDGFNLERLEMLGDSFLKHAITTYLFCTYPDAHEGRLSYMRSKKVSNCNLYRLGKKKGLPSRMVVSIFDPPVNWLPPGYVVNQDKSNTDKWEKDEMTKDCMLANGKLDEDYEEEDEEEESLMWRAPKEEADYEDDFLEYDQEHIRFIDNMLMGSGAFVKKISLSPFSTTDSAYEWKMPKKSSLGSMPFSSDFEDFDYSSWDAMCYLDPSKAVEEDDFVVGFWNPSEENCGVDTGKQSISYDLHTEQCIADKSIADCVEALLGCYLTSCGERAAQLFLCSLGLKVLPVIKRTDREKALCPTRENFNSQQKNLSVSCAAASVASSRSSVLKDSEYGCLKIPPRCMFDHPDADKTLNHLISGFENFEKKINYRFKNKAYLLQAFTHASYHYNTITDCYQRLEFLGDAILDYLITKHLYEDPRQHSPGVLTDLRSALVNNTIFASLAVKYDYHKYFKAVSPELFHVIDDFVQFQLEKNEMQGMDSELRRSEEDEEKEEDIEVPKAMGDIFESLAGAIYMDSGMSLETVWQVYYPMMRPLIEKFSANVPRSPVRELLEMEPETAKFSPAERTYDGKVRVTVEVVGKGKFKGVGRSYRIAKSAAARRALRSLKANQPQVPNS
# UniProt Q99543: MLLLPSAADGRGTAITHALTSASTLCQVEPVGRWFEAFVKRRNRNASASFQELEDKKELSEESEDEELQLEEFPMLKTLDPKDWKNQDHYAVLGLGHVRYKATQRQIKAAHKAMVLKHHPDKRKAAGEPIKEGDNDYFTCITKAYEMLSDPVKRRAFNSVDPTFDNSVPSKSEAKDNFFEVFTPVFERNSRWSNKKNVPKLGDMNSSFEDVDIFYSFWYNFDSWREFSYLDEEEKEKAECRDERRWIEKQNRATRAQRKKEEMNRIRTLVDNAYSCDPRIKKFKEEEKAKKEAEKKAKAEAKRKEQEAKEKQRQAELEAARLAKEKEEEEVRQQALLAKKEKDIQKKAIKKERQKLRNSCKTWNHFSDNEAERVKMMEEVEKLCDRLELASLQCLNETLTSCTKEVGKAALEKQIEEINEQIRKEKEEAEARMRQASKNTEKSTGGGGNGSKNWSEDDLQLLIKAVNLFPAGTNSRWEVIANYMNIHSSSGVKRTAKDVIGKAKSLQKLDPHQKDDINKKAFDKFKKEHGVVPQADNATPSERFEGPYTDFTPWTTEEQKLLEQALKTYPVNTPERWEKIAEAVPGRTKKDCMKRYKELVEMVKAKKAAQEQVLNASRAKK
# UniProt P26358: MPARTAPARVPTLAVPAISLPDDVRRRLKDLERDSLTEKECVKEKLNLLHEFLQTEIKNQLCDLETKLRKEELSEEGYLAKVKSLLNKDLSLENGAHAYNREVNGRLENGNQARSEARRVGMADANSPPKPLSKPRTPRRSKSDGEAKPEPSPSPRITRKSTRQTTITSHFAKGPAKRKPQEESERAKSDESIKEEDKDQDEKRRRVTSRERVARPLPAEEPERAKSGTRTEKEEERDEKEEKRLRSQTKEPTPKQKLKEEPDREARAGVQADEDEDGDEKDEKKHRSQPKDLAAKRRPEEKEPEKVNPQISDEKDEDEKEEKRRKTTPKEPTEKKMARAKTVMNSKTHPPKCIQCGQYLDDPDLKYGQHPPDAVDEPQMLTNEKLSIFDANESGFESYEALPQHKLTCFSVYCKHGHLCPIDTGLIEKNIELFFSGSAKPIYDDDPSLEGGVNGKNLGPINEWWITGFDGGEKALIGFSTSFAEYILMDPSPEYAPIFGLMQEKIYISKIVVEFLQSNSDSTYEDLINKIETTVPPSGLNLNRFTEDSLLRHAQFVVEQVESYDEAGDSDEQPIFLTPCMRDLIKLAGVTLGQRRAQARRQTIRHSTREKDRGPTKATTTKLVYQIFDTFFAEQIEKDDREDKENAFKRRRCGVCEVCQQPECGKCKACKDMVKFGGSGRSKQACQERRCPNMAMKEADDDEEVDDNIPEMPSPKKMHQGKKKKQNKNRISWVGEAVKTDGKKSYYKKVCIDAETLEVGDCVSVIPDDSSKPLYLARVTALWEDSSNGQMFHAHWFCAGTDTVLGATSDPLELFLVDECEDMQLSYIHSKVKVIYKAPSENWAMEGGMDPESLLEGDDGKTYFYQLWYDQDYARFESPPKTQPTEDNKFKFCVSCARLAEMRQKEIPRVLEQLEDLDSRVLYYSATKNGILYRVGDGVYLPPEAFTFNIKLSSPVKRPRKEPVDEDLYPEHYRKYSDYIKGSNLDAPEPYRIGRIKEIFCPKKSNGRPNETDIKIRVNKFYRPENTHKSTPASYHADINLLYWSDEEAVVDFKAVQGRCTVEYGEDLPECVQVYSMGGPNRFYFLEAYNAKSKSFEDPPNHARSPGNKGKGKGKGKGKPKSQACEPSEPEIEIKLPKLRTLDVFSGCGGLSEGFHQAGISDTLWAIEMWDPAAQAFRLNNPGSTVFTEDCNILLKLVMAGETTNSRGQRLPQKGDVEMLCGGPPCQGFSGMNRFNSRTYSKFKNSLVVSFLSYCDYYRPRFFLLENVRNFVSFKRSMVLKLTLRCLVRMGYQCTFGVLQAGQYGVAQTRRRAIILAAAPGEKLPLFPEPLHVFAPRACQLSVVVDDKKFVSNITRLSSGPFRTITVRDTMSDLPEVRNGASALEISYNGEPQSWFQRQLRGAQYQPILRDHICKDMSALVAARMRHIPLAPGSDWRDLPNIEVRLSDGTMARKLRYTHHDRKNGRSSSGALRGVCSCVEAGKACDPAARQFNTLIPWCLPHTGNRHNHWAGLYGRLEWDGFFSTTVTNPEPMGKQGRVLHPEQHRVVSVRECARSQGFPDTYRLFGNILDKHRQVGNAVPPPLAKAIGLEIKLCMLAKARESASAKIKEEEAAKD
# UniProt Q8IWF6, 200-221: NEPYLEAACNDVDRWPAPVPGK
# UniProt O75165: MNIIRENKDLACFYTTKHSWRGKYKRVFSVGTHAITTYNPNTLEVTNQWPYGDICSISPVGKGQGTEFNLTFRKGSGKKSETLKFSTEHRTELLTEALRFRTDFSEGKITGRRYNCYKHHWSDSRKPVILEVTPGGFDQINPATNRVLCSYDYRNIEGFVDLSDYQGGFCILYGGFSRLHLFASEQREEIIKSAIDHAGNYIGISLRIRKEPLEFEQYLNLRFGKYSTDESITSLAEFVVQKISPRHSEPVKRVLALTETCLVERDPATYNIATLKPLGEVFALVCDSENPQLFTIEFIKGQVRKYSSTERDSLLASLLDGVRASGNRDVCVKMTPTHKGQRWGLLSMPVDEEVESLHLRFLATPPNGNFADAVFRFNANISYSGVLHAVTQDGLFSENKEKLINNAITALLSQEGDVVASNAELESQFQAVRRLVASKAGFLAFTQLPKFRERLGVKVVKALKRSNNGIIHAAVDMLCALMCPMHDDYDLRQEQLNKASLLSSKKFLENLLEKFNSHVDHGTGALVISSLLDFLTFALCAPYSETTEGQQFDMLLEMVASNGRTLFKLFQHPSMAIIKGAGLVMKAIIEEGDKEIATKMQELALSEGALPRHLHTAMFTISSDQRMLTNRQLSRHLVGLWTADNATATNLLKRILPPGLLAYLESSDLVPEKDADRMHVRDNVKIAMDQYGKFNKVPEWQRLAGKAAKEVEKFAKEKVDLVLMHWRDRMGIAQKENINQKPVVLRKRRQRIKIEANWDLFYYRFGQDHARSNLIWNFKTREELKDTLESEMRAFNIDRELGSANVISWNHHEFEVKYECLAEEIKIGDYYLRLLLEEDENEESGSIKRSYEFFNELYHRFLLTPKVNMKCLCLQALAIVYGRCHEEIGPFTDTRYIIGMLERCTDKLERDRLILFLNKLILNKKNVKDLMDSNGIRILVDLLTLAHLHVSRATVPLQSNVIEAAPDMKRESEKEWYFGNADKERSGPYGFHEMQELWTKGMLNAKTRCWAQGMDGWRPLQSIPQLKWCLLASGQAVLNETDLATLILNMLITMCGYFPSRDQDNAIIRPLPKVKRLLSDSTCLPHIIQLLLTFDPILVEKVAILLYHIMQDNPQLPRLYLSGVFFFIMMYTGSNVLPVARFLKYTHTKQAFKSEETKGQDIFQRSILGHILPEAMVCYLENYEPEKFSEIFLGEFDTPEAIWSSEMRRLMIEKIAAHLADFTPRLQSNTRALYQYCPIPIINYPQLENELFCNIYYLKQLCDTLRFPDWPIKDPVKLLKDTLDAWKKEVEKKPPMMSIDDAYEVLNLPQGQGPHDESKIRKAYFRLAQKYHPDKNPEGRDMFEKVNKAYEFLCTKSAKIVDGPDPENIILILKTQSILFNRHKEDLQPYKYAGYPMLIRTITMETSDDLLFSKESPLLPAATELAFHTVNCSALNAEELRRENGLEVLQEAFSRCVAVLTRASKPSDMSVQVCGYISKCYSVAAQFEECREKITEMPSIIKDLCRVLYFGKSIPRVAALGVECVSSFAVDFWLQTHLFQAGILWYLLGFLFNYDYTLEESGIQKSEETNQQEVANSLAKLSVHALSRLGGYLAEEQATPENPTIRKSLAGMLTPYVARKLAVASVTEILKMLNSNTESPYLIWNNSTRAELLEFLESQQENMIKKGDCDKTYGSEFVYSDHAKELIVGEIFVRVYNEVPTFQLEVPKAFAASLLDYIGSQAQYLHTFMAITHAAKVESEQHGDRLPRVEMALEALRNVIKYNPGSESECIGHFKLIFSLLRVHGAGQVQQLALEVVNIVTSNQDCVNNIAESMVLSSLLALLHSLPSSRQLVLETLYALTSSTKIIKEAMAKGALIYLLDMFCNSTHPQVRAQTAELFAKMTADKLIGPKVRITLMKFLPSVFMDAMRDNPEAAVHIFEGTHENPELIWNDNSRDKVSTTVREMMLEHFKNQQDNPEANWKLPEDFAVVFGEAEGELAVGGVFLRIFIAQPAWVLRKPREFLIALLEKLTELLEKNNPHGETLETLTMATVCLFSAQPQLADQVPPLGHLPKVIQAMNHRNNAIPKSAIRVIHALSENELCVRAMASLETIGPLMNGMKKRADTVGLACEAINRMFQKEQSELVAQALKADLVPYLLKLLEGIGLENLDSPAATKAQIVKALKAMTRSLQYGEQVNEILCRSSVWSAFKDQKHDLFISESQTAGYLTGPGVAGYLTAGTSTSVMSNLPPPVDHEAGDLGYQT
# UniProt Q99615, 2-26: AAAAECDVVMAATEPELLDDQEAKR
# Some of the results follow. The data scatter; read single values as rough.
# Compound: ClCC(=O)N[C@@H]1CCCc2ccccc12
# Experiment: log2 mean competition ratio of IA-DTB cysteine labelling (DMSO/compound) (log2 ratio); higher = stronger cysteine engagement by compound
# Settings: 50 µM; treatment time: 4 h; cell line lysate: HEK293T
# Experimental: (§1)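 IA-DTB competitive cysteine chemoproteomics in HEK293T RIPA lysate. Lysates were treated with compound 29 or 30 at 50 or 200 µM for 4 h, then IA-DTB (500 µM, 1 h), trypsin-digested, NeutrAvidin-enriched and analysed by diaPASEF. Competition ratio = intensity DMSO / intensity compound (n=4 treated, n=64 DMSO); binding: mean log2 CR ≥ 1 and p ≤ 0.05 plus QC filters. Target is the cysteine site.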
row,Target,log2 mean competition ratio
1,DHX38 C618 (UniProt Q92620),-0.0535
2,DOCK11 C492,0.369
3,DNAJC6 C268 (UniProt O75061),-0.164
4,DIAPH3 C195 (UniProt Q9NSV4),0.398
5,DENR C13 (UniProt O43583),-0.19
6,DHX29 C1059 (UniProt Q7Z478),0.0184
7,DICER1 C1621 (UniProt Q9UPY3),0.133
8,DNAJC2 C140 (UniProt Q99543),-0.521
9,DNMT1 C1339 (UniProt P26358),-0.144
10,DENND6A C208 (UniProt Q8IWF6),-0.206
11,DHX33 C190 (UniProt Q9H6R0),-0.195
12,DHX57 C598 (UniProt Q6P158),-0.262
13,DNAJC1 C380 (UniProt Q96KC8),-0.00169
14,DHX15 C226 (UniProt O43143),-0.28
15,DHX36 C640 (UniProt Q9H2U1),-0.0597
16,DHX34 C189 (UniProt Q14147),0.11
17,DOLK C99 (UniProt Q9UPQ8),-0.15
18,DHX9 C415 (UniProt Q08211),-0.246
19,DOCK6 C384 (UniProt Q96HP0),-0.0427

row,Target,log2 mean competition ratio
1,DNAJA1 C302 (UniProt P31689),-0.204
2,DENND4A C812 (UniProt Q7Z401),-0.167
3,DLG5 C1207 (UniProt Q8TDM6),0.0907
4,DENND4C C1903 (UniProt Q5VZ89),0.48
5,DNAJC13 C2082 (UniProt O75165),0.178
6,DNAJC7 C7 (UniProt Q99615),-0.406
7,DNPH1 C117,-0.0479
8,DNAJC7 C317 (UniProt Q99615),-0.115
9,DMXL1 C191 (UniProt Q9Y485),-0.0368
10,DNMT3A C387 (UniProt Q9Y6K1),0.128
11,DNAJC2 C276 (UniProt Q99543),0.0307
12,DMXL1 C543 (UniProt Q9Y485),0.321
13,DHCR7 C380 (UniProt Q9UBM7),0.0217
14,DNAAF5 C173 (UniProt Q86Y56),-0.0825
15,DIS3L C482 (UniProt Q8TF46),-0.216
16,DIPK1A C354 (UniProt Q5T7M9),0.254
17,DONSON C190 (UniProt Q9NYP3),0.083
18,DGCR8 C430 (UniProt Q8WYQ5),0.0385
19,DOCK1 C1157 (UniProt Q14185),0.169

# Same assay, conditions: 200 µM; treatment time: 4 h; cell line lysate: HEK293T
row,Target,log2 mean competition ratio
1,DHX38 C618 (UniProt Q92620),0.0339
2,DOCK11 C492,0.25
3,DNAJC6 C268 (UniProt O75061),-0.00663
4,DIAPH3 C195 (UniProt Q9NSV4),0.254
5,DENR C13 (UniProt O43583),-0.0359
6,DHX29 C1059 (UniProt Q7Z478),0.0553
7,DICER1 C1621 (UniProt Q9UPY3),0.0788
8,DNAJC2 C140 (UniProt Q99543),-0.0228
9,DNMT1 C1339 (UniProt P26358),0.0334
10,DENND6A C208 (UniProt Q8IWF6),0.211
11,DHX33 C190 (UniProt Q9H6R0),0.227
12,DHX57 C598 (UniProt Q6P158),-0.111
13,DNAJC1 C380 (UniProt Q96KC8),-0.26
14,DHX15 C226 (UniProt O43143),0.0437
15,DHX36 C640 (UniProt Q9H2U1),-0.277
16,DHX34 C189 (UniProt Q14147),-0.0971
17,DOLK C99 (UniProt Q9UPQ8),-0.242
18,DHX9 C415 (UniProt Q08211),0.137
19,DOCK6 C384 (UniProt Q96HP0),-0.192

row,Target,log2 mean competition ratio
1,DNAJA1 C302 (UniProt P31689),-0.231
2,DENND4A C812 (UniProt Q7Z401),0.262
3,DLG5 C1207 (UniProt Q8TDM6),-0.0558
4,DENND4C C1903 (UniProt Q5VZ89),-0.169
5,DNAJC13 C2082 (UniProt O75165),0.202
6,DNAJC7 C7 (UniProt Q99615),-0.125
7,DNPH1 C117,0.547
8,DNAJC7 C317 (UniProt Q99615),-0.0235
9,DMXL1 C191 (UniProt Q9Y485),-0.0887
10,DNMT3A C387 (UniProt Q9Y6K1),0.192
11,DNAJC2 C276 (UniProt Q99543),-0.0705
12,DMXL1 C543 (UniProt Q9Y485),0.165
13,DHCR7 C380 (UniProt Q9UBM7),-0.165
14,DNAAF5 C173 (UniProt Q86Y56),-0.346
15,DIS3L C482 (UniProt Q8TF46),-0.144
16,DIPK1A C354 (UniProt Q5T7M9),0.517
17,DONSON C190 (UniProt Q9NYP3),0.134
18,DGCR8 C430 (UniProt Q8WYQ5),-0.0191
19,DOCK1 C1157 (UniProt Q14185),-0.367

# Compound: ClCC(=O)N[C@H]1CCCc2ccccc12
# Experiment: as above
# Settings: 50 µM; treatment time: 4 h; cell line lysate: HEK293T
# Experimental: as §1
row,Target,log2 mean competition ratio
1,DHX38 C618 (UniProt Q92620),-0.33
2,DOCK11 C492,0.168
3,DNAJC6 C268 (UniProt O75061),-0.261
4,DIAPH3 C195 (UniProt Q9NSV4),0.372
5,DENR C13 (UniProt O43583),-0.479
6,DHX29 C1059 (UniProt Q7Z478),-0.0869
7,DICER1 C1621 (UniProt Q9UPY3),0.218
8,DNAJC2 C140 (UniProt Q99543),-0.556
9,DNMT1 C1339 (UniProt P26358),-0.684
10,DENND6A C208 (UniProt Q8IWF6),0.418
11,DHX33 C190 (UniProt Q9H6R0),-0.362
12,DHX57 C598 (UniProt Q6P158),-0.245
13,DNAJC1 C380 (UniProt Q96KC8),0.109
14,DHX15 C226 (UniProt O43143),-0.0884
15,DHX36 C640 (UniProt Q9H2U1),-0.311
16,DHX34 C189 (UniProt Q14147),0.252
17,DOLK C99 (UniProt Q9UPQ8),-0.205
18,DHX9 C415 (UniProt Q08211),-0.119
19,DOCK6 C384 (UniProt Q96HP0),-0.00226

row,Target,log2 mean competition ratio
1,DNAJA1 C302 (UniProt P31689),-0.195
2,DENND4A C812 (UniProt Q7Z401),-0.123
3,DLG5 C1207 (UniProt Q8TDM6),0.0858
4,DENND4C C1903 (UniProt Q5VZ89),0.159
5,DNAJC13 C2082 (UniProt O75165),0.147
6,DNAJC7 C7 (UniProt Q99615),-0.313
7,DNPH1 C117,-0.833
8,DNAJC7 C317 (UniProt Q99615),-0.179
9,DMXL1 C191 (UniProt Q9Y485),-0.0627
10,DNMT3A C387 (UniProt Q9Y6K1),-0.375
11,DNAJC2 C276 (UniProt Q99543),-0.241
12,DMXL1 C543 (UniProt Q9Y485),-0.144
13,DHCR7 C380 (UniProt Q9UBM7),0.0253
14,DNAAF5 C173 (UniProt Q86Y56),-0.118
15,DIS3L C482 (UniProt Q8TF46),-0.328
16,DIPK1A C354 (UniProt Q5T7M9),0.0436
17,DONSON C190 (UniProt Q9NYP3),-0.0553
18,DGCR8 C430 (UniProt Q8WYQ5),0.293
19,DOCK1 C1157 (UniProt Q14185),0.479
